Test results reported in the supplement of paper PMC12819154, “High-throughput peptide-centric local stability assay extends protein–ligand identification to membrane proteins, tissues and bacteria” (Nature Structural & Molecular Biology, 2025).
This is one part of the list. Small differences around the control level are noise.

Sequences of proteins named here, by UniProt entry; tags and fusion partners are left off. A change or cut given only in a name is not applied to a line headed by its entry.
UniProt Q8NBK3: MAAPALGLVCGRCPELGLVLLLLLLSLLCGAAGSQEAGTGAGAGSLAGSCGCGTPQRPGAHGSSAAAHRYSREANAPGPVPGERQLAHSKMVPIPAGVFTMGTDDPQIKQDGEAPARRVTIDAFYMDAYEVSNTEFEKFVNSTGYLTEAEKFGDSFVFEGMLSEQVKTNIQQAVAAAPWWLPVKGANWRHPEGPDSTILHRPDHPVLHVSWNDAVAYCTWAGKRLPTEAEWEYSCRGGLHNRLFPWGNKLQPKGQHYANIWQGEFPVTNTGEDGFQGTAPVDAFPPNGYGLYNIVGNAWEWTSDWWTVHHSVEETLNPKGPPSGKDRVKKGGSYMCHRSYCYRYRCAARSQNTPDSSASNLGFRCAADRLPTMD
UniProt Q8NDD1: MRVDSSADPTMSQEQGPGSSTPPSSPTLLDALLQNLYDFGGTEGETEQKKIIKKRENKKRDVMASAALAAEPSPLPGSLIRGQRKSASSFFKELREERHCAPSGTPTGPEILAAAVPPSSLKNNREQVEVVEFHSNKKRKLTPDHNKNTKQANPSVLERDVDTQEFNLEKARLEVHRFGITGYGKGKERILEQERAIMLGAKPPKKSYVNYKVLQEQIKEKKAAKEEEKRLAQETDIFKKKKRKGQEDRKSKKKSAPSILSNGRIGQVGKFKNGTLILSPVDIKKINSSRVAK
UniProt Q8ND56: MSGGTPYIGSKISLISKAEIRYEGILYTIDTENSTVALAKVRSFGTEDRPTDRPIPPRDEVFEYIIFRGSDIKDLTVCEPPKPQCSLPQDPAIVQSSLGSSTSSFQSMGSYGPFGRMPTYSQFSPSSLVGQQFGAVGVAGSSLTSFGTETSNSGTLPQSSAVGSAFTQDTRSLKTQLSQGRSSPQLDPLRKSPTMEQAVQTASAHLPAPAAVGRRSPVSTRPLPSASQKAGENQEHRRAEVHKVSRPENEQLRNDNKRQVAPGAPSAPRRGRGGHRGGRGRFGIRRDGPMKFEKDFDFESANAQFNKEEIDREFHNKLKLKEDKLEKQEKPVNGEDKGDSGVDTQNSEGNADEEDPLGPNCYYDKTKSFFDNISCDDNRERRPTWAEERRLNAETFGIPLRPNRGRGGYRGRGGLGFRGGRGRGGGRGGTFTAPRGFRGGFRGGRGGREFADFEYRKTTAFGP
UniProt Q8TAP8: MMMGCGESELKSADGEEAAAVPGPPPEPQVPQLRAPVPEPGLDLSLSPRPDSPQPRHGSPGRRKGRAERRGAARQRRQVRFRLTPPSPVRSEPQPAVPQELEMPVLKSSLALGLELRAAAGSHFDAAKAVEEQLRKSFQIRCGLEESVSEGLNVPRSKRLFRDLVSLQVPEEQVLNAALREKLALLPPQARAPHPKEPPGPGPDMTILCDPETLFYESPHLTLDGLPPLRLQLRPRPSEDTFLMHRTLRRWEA
UniProt Q8NDF8: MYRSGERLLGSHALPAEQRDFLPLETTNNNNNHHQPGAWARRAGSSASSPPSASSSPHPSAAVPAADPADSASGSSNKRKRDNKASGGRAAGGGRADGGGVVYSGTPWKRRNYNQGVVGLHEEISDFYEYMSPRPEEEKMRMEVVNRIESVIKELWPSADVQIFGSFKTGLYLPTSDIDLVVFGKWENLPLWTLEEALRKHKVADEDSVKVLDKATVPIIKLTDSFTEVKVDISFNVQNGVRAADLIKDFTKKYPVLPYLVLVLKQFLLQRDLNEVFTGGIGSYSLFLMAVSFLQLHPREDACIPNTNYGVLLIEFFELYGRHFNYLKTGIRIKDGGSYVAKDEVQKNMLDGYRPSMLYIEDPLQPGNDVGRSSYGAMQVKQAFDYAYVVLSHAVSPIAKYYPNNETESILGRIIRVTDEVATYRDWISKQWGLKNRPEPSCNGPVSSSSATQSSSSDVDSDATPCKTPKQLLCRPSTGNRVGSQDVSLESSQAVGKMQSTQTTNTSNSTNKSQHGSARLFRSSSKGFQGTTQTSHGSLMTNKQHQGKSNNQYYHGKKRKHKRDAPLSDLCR
UniProt Q8NE35: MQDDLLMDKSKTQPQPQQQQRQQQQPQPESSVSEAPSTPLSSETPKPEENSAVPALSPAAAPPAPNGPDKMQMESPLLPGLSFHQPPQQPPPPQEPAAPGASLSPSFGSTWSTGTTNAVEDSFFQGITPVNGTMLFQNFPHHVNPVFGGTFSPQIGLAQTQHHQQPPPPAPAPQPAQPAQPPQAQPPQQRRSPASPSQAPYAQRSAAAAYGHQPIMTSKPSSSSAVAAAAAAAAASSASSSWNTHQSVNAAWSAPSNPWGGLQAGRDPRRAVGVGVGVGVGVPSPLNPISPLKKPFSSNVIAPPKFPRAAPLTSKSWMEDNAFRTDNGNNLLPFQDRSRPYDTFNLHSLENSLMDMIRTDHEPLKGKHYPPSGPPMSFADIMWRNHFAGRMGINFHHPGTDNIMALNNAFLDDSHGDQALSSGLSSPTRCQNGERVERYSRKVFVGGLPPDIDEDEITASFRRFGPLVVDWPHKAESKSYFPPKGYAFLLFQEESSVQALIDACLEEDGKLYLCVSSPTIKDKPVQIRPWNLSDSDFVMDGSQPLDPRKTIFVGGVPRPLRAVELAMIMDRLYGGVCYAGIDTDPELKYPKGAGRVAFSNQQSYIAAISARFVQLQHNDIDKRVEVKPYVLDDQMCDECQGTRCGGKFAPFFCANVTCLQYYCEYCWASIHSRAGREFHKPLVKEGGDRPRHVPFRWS
UniProt Q8N9M1: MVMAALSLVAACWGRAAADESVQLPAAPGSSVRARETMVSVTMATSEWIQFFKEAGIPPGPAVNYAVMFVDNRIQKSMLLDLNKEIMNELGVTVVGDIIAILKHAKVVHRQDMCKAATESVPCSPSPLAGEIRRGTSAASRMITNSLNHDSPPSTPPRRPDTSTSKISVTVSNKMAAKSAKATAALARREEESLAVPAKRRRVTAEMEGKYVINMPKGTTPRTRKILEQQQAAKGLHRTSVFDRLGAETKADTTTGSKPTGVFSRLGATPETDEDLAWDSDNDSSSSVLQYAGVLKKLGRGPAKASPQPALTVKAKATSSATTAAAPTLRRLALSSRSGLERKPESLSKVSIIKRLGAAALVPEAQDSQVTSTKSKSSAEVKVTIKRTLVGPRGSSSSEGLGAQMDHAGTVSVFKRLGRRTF
UniProt Q8N720: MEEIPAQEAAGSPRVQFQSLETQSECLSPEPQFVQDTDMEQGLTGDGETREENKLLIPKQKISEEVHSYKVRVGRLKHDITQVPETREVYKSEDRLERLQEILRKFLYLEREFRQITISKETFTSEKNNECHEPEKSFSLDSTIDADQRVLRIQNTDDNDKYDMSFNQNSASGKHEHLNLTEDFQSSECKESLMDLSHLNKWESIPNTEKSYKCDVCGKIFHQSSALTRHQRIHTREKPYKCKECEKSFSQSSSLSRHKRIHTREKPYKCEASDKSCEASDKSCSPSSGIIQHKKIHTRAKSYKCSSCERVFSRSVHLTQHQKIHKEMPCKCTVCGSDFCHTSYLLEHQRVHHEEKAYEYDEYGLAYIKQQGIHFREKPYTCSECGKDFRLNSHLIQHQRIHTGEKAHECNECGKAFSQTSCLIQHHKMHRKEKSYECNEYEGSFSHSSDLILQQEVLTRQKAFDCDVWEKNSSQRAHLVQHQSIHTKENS
UniProt Q8NCF5: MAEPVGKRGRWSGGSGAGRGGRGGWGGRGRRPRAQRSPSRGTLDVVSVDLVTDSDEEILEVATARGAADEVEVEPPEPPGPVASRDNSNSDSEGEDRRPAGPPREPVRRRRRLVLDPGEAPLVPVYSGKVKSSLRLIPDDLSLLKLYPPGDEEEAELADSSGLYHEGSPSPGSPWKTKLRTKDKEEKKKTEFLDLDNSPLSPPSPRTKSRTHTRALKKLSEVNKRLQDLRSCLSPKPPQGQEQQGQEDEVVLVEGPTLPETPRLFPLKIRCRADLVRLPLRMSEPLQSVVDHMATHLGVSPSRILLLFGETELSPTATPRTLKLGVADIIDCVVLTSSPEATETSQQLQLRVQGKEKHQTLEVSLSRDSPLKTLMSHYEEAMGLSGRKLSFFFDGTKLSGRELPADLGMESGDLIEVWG
UniProt Q8N9N8: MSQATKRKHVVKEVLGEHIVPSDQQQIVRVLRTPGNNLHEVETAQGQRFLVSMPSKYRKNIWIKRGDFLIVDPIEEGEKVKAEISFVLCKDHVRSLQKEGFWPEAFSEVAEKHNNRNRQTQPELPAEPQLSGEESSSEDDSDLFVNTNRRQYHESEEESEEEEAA
UniProt Q8TB03: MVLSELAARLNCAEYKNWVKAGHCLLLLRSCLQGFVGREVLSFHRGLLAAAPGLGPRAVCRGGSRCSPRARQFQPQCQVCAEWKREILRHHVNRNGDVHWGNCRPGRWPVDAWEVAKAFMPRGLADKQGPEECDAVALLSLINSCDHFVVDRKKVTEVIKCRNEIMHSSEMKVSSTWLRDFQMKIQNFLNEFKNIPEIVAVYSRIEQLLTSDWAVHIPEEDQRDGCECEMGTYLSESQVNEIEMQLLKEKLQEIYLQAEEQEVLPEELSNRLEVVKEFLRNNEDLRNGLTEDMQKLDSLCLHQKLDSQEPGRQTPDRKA
UniProt Q8N7X0: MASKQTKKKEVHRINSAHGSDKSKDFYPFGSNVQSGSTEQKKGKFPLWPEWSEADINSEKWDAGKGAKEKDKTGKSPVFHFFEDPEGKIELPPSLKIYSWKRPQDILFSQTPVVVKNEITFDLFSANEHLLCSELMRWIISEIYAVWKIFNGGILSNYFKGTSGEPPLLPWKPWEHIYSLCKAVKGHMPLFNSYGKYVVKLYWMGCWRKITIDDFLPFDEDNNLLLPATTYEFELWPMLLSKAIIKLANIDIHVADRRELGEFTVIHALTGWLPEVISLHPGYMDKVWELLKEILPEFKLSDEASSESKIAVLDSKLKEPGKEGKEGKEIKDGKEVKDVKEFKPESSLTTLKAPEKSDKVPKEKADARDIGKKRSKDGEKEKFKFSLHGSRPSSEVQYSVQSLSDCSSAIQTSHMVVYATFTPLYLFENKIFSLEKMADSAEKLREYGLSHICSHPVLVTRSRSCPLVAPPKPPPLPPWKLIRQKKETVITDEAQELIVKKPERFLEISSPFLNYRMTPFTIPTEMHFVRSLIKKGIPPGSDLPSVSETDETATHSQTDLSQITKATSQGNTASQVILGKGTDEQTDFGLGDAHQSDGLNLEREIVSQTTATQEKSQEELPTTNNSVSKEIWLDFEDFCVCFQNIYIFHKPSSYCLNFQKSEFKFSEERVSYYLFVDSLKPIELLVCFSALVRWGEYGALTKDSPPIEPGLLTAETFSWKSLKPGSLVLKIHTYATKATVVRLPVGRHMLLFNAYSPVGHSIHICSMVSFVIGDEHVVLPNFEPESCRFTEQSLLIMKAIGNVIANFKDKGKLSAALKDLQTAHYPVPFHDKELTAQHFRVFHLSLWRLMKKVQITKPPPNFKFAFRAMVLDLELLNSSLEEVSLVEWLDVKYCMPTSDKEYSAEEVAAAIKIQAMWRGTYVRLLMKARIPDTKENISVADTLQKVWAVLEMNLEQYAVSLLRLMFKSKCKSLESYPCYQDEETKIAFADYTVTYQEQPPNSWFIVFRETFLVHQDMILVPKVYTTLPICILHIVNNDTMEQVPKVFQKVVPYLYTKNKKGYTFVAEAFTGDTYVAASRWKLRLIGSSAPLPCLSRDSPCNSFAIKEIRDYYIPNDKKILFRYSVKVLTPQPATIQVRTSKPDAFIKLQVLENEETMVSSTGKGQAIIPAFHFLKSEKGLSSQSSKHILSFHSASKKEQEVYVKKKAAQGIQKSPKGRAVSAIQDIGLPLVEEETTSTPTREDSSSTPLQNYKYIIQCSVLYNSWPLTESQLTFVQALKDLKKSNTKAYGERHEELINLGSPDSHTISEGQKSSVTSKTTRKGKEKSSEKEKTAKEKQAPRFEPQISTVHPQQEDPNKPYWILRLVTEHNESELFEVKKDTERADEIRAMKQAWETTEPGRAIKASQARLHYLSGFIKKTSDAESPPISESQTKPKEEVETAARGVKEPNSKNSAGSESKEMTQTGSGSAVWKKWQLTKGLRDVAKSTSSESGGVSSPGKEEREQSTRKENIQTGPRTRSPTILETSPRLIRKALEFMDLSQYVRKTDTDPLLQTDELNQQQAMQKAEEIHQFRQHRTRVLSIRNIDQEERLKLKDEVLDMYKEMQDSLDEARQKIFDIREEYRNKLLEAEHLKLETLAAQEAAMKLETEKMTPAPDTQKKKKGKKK
UniProt Q8NFH4: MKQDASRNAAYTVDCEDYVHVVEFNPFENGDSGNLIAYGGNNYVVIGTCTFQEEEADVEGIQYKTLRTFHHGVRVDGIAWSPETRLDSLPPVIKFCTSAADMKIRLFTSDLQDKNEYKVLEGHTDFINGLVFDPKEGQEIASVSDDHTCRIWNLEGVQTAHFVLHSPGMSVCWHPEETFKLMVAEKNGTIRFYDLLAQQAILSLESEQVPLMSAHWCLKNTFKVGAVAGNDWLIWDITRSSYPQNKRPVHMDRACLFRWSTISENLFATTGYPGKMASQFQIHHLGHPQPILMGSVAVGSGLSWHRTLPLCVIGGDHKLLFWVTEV

Compound: CN[C@@H]1C[C@H]2O[C@@](C)([C@@H]1OC)n1c3ccccc3c3c4c(c5c6ccccc6n2c5c31)C(=O)NC4 [staurosporine]
Assay: log2 fold change of tryptic peptide abundance, ligand vs vehicle (limited proteolysis) (log2 ratio); higher = more trypsin-susceptible (destabilized)
Conditions: ligand concentration: 20 uM; sample: K562 cleared lysate; digestion: 4 min, 22 C (HT-PELSA RT4min, Orbitrap Astral)

| Target | log2 fold change |
| --- | --- |
| TNRC6A (peptide sequence: IGGGWGNSDAR, peptide start residue: 1754) (UniProt Q8NDV7) | -0.317 |
| LEMD2 (peptide sequence: LPSSLLGPDPRPGLR, peptide start residue: 172) (UniProt Q8NC56) | -0.201 |
| SUMF1 (peptide sequence: EANAPGPVPGER, peptide start residue: 73) (UniProt Q8NBK3) | -0.117 |
| TTC9C (peptide sequence: YLQLTQSELSSYHR, peptide start residue: 147) (UniProt Q8N5M4) | -0.124 |
| C1orf131 (peptide sequence: KLTPDHNK, peptide start residue: 140) (UniProt Q8NDD1) | -0.398 |
| KMT2C (peptide sequence: AVHGGFEDCRPLNKK, peptide start residue: 4337) (UniProt Q8NEZ4) | 0.568 |
| LSM14A (peptide sequence: RPTWAEER, peptide start residue: 382) (UniProt Q8ND56) | 0.214 |
| PDZD8 (peptide sequence: VVPPPLVDK, peptide start residue: 622) (UniProt Q8NEN9) | -0.233 |
| MEIOB (peptide sequence: NCMTATVISK, peptide start residue: 243) (UniProt Q8N635) | 0.459 |
| PPP1R35 (peptide sequence: MMGCGESELK, peptide start residue: 2) (UniProt Q8TAP8) | 0.623 |
| UniProt Q8NCY6 (peptide sequence: SAYDEPHLLVNIEK, peptide start residue: 196) | 0.461 |
| CHCHD4 (peptide sequence: KPAEQAEETAPIEATATK, peptide start residue: 119) (UniProt Q8N4Q1) | -0.00616 |
| UniProt Q8NDF8 (peptide sequence: DAPLSDLCR, peptide start residue: 564) | 0.191 |
| HDDC3 (peptide sequence: LQVEQAPHSSPGAK, peptide start residue: 103) (UniProt Q8N4P3) | 0.17 |
| CCDC82 (peptide sequence: NIDLQDQEK, peptide start residue: 120) (UniProt Q8N4S0) | -0.25 |
| MAPK1IP1L (peptide sequence: SDEFSLADALPEHSPAK, peptide start residue: 2) (UniProt Q8NDC0) | -0.0954 |
| CPEB3 (peptide sequence: KPFSSNVIAPPKFPR, peptide start residue: 294) (UniProt Q8NE35) | 0.312 |
| C19orf47 (peptide sequence: LGAAALVPEAQDSQVTSTK, peptide start residue: 356) (UniProt Q8N9M1) | 0.567 |
| PPTC7 (peptide sequence: LHTANLGDSGFLVVR, peptide start residue: 151) (UniProt Q8NI37) | 0.619 |
| ZNF655 (peptide sequence: SCSPSSGIIQHK, peptide start residue: 283) (UniProt Q8N720) | -0.979 |
| NFATC2IP (peptide sequence: ILLLFGETELSPTATPR, peptide start residue: 304) (UniProt Q8NCF5) | -0.199 |
| NCOA7 (peptide sequence: DTLKECLSLDPEER, peptide start residue: 434) (UniProt Q8NI08) | -0.157 |
| EIF1AD (peptide sequence: EGFWPEAFSEVAEKHNNR, peptide start residue: 99) (UniProt Q8N9N8) | -0.227 |
| NECAP1 (peptide sequence: ESQEMDARPK, peptide start residue: 139) (UniProt Q8NC96) | 0.433 |
| ZNF280C (peptide sequence: LHATTSTASK, peptide start residue: 565) (UniProt Q8ND82) | 0.646 |
| CXorf38 (peptide sequence: LDSQEPGR, peptide start residue: 305) (UniProt Q8TB03) | -0.156 |
| ADGB (peptide sequence: EILPEFK, peptide start residue: 293) (UniProt Q8N7X0) | 0.0309 |
| NUP37 (peptide sequence: TLPLCVIGGDHK, peptide start residue: 307) (UniProt Q8NFH4) | 0.321 |

Seven entries from above, set out differently:
Target	log2 fold change
MEIOB (peptide sequence: NCMTATVISK, peptide start residue: 243) (UniProt Q8N635)	0.459
PPP1R35 (peptide sequence: MMGCGESELK, peptide start residue: 2) (UniProt Q8TAP8)	0.623
UniProt Q8NCY6 (peptide sequence: SAYDEPHLLVNIEK, peptide start residue: 196)	0.461
CHCHD4 (peptide sequence: KPAEQAEETAPIEATATK, peptide start residue: 119) (UniProt Q8N4Q1)	-0.00616
UniProt Q8NDF8 (peptide sequence: DAPLSDLCR, peptide start residue: 564)	0.191
HDDC3 (peptide sequence: LQVEQAPHSSPGAK, peptide start residue: 103) (UniProt Q8N4P3)	0.17
CCDC82 (peptide sequence: NIDLQDQEK, peptide start residue: 120) (UniProt Q8N4S0)	-0.25
